Laboratory results published in patent US6146616A, “Antioxidant and/or antielastase composition based on lupine oil” (priority 1997, dated 2000).
For at least one compound, name, drawing or mass did not settle the structure.

Sequences of proteins named here, by UniProt entry; tags and fusion partners are left off. Residues count along the entry.
UniProt P00772, 27-266: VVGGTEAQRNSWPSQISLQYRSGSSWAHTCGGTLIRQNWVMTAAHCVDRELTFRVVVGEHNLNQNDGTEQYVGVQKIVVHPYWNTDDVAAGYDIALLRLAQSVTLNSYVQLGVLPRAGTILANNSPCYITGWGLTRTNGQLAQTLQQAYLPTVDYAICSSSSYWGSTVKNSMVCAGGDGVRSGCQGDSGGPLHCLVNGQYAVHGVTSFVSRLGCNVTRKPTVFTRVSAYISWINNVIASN

Biological target: T1, pancreatic elastase (Sus scrofa, UniProt P00772)
T1 construct: purchased Sigma E0258
Assay: Antielastase activity in sections of human skin explant (intact elastic fibers, image analysis)
Assay type: biochemical
Set-up: key to the marks not given beside the values
Settings: Table 8; 0.125% (w/v)
Text: The study of the antielastase activity represents a good indication of skin aging since it is now well known that the degradation of the elastic fibers present in the dermis involves endogenous elastases. The test used makes it possible to study the antielastase activity in vitro in sections of human skin explant. An application of purified elastase on a limited portion of the section is accompanied by degradation of the endogenous elastic fibers. The elastic fibers are stained with (+)-catechin. The percentage of intact elastic fibers per optical field is evaluated by image analysis. […]
After incubation, the sections are rinsed with the incubation medium and stained with (+)-catechin. The activity of the enzyme in the absence and in the presence of the test products or of the reference products is evaluated by image analysis: the image of the stained sections is digitized on a video screen; a software for image analysis makes it possible to measure the amounts of gray in the binary images; the surface area occupied by the intact elastic fibers is measured. The results are expressed as percentage of intact elastic fibers per optical field.
The percentage inhibition of the elastase activity of the test products and of the reference products is calculated with the aid of the following formula: [formula]
The antielastase activity is determined under the conditions indicated in IV above.

Q: With `[Cl][Hg][Cl]` [Mercuric chloride, mercuric chloride] as the compound, how does the “Inhibition (of elastase, graded 0 to +++)” value read?
A: Its value is “++”.
